# Source: paper PMC5316994
# Chains of the proteins cited; added tags and fusions are not shown. Lines headed by an entry give the natural chain unless they say otherwise; changes in a name come on top.
# UniProt Q8I489: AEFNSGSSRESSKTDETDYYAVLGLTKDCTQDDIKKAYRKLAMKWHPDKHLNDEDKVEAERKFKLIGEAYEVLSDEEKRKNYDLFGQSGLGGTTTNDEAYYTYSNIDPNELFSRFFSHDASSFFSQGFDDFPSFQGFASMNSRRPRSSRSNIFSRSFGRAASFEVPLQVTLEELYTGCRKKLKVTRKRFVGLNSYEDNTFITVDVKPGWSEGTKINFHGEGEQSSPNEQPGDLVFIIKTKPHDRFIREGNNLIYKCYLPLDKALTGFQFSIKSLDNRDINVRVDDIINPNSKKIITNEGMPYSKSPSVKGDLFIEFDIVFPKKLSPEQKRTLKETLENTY
# UniProt Q8IAK9: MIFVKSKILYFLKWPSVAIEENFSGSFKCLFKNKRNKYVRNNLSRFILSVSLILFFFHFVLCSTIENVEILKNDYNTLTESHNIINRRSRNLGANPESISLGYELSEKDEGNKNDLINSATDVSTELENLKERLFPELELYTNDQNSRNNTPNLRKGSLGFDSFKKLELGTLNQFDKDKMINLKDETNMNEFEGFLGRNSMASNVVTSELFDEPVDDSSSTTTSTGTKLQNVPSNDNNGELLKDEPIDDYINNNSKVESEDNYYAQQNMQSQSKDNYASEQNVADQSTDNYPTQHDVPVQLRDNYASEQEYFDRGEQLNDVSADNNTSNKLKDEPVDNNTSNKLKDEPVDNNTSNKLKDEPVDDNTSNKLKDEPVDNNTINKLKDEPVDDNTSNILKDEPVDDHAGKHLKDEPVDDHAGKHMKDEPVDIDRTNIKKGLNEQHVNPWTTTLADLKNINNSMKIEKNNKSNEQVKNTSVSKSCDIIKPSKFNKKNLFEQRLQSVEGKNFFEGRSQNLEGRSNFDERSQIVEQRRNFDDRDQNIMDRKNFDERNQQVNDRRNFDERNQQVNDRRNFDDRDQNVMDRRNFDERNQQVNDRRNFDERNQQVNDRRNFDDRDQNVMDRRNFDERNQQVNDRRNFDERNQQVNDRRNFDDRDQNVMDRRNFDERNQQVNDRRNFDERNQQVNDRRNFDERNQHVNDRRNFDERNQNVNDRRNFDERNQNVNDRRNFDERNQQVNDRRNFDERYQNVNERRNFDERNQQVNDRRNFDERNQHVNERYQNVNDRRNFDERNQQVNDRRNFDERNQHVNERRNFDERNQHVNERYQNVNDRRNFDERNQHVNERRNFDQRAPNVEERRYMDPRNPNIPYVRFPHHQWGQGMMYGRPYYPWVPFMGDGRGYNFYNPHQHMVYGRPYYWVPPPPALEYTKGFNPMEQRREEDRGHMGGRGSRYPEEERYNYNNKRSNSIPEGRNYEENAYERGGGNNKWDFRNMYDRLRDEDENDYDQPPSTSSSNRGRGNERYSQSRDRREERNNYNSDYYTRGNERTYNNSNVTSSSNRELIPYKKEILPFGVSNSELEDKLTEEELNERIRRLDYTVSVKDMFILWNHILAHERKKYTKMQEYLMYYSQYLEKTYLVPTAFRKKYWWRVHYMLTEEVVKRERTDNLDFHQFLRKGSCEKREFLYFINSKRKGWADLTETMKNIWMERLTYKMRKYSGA
# Molecular target: PFE55^GFP (Plasmodium falciparum 3D7) (UniProt Q8I489)
# Assay: co-IP
row,Substance,binding
1,PfHsp101 (from UniProt Q8IIJ8),binds
2,PfPHIST_0801 (from UniProt Q8IAK9),binds

# These are yes or no findings as the source states them, for the method shown. In cells and extracts the contact can be indirect. Binding can be weak; no strength is given.
